Data as given in PubChem BioAssay AID1259425 (University of Nebraska Medical Center, 2018)
Here is an unselected part of about 14,000 reagents tested. Not all columns of the deposit are shown. No sequences are given here. Not stated in the record: the time to read-out.

Aim: 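Find knockdowns that reproduce the gene expression pattern seen when KSR1 is lost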 (primary screen)
System: HCT116 human colon cancer cells
Knock-down reagent: siRNA pool against human genes, 50 nM siRNA
Measured: 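After 50 nM siRNA pool, branched-DNA assay measures six marker transcripts per well, minus blank, normalised to the geometric mean of two housekeeping transcripts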
Direction: BNIP3L mRNA: higher = more BNIP3L transcript after knockdown; NDRG1 mRNA: higher = more NDRG1 transcript after knockdown

{"target": "SRPRB (GeneID 58477)", "PubChem SID": "SID364002090", "BNIP3L mRNA, set 1": 0.107, "NDRG1 mRNA, set 1": 0.0758}
{"target": "KREMEN1 (GeneID 83999)", "PubChem SID": "SID364003764", "BNIP3L mRNA, set 1": 0.118, "NDRG1 mRNA, set 1": 0.247}
{"target": "ZNF527 (GeneID 84503)", "PubChem SID": "SID364005045", "BNIP3L mRNA, set 1": 0.139, "NDRG1 mRNA, set 1": 0.299}
{"target": "CCS (GeneID 9973)", "PubChem SID": "SID363996060", "BNIP3L mRNA, set 1": 0.0767, "NDRG1 mRNA, set 1": 0.375}

Continued, starting with the last 2 of the part before.
{"target": "ZNF527 (GeneID 84503)", "PubChem SID": "SID364005045", "BNIP3L mRNA, set 1": 0.139, "NDRG1 mRNA, set 1": 0.299}
{"target": "CCS (GeneID 9973)", "PubChem SID": "SID363996060", "BNIP3L mRNA, set 1": 0.0767, "NDRG1 mRNA, set 1": 0.375}
{"target": "TLNRD1 (GeneID 59274)", "PubChem SID": "SID364002487", "BNIP3L mRNA, set 1": 0.0631, "NDRG1 mRNA, set 1": 0.528}
{"target": "PALD1 (GeneID 27143)", "PubChem SID": "SID364005296", "BNIP3L mRNA, set 1": 0.07, "NDRG1 mRNA, set 1": 0.36}
{"target": "TRA2B (GeneID 6434)", "PubChem SID": "SID363995563", "BNIP3L mRNA, set 1": 0.162, "NDRG1 mRNA, set 1": 0.6}
{"target": "HOMER3 (GeneID 9454)", "PubChem SID": "SID363995790", "BNIP3L mRNA, set 1": 0.117, "NDRG1 mRNA, set 1": 0.101}
{"target": "SLC6A6 (GeneID 6533)", "PubChem SID": "SID363994192", "BNIP3L mRNA, set 1": 0.0431, "NDRG1 mRNA, set 1": 0.243}
{"target": "CES3 (GeneID 23491)", "PubChem SID": "SID364003163", "BNIP3L mRNA, set 1": 0.17, "NDRG1 mRNA, set 1": 0.194}
{"target": "URM1 (GeneID 81605)", "PubChem SID": "SID364003489", "BNIP3L mRNA, set 1": 0.156, "NDRG1 mRNA, set 1": 0.192}
{"target": "ZNF248 (GeneID 57209)", "PubChem SID": "SID364001972", "BNIP3L mRNA, set 1": 0.173, "NDRG1 mRNA, set 1": 0.118}
